{
  "sequences": {"note": "Amino acid sequences for entries named in this document (tags omitted). A change or cut given only in a name is not applied to a line headed by its entry.", "UniProt P26358": "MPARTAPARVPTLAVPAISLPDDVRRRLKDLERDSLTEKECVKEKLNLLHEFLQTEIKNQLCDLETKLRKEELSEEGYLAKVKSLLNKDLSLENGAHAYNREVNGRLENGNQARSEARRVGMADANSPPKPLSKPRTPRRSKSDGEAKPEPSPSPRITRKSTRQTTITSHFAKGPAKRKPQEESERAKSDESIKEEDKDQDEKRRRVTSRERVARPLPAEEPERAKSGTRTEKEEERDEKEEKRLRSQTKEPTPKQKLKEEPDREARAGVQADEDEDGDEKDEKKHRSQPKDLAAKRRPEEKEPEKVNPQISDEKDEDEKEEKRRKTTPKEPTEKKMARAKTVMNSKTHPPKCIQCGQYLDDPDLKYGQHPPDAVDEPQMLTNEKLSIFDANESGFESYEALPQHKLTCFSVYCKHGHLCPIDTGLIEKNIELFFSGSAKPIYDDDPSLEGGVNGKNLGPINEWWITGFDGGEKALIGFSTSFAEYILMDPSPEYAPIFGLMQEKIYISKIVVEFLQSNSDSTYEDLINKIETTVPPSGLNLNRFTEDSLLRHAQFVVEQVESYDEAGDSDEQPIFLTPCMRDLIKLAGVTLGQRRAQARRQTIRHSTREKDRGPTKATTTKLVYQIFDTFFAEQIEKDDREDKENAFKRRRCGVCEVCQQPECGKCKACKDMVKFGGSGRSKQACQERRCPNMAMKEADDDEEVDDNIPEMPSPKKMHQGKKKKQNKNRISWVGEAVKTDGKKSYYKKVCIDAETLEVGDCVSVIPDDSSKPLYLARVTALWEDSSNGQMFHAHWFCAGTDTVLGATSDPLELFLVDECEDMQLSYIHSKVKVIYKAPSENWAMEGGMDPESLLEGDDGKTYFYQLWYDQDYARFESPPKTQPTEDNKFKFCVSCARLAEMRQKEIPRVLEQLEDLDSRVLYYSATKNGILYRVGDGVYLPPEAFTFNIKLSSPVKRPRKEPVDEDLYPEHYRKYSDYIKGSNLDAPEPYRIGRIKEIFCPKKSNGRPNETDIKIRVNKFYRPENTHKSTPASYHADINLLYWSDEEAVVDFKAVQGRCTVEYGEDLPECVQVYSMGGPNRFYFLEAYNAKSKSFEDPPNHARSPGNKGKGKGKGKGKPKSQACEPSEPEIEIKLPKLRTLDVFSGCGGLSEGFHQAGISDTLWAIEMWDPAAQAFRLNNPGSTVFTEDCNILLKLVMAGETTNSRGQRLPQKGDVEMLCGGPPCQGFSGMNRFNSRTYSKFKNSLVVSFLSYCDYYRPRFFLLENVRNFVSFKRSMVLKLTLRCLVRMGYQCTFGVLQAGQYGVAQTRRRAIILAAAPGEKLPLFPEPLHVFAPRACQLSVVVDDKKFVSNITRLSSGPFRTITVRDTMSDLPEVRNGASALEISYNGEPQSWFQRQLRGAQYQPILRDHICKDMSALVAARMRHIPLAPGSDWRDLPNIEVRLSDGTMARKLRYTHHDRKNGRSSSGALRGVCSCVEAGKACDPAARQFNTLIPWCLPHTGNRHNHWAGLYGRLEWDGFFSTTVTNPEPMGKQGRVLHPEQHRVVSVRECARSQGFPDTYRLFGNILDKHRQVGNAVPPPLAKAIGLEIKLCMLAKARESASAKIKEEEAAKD"},
  "source": "patent US10105382B2",
  "about": "“Therapy regimen and methods to sensitize cancer cells treated with epigenetic therapy to PARP inhibitors in ovarian cancer” (THE JOHNS HOPKINS UNIVERSITY, priority 2014, dated 2018)",
  "key": {"[1]": {"test_system": "KASUMI-1 (AML1-ETO positive)", "assay": "Colony forming (methylcellulose clonogenic) assay in KASUMI-1", "assay_type": "cell-based, Human", "details": "DAC 10 nM daily for 3 days, single agent", "procedure": "Decitabine (DAC, 21.9 mM in DMSO, Sigma-Aldrich) was further diluted in water just before treatment of the cells with 5 nM, 10 nM or 20 nM of DAC. […] DAC was added every 24 hours for 72 hours with daily medium change, then the drug was washed out and cells were allowed to recover for 4 days (unless indicated otherwise) before further use. At day 7, cells were counted with trypan blue, treated with PARPi's, set in culture in 100 mm plates at a density of 0.2×10^6 cells/mL or in methylcellulose for colony forming assay as described later. At days indicated on the figures, 5- to 10×10^6 viable cells (trypan blue exclusion) were recovered, fast frozen and stored at −80° C. for further use for protein extraction. […]\nIn order to study if the DAC dependent reprogramming (Tsai et al., 2012) could sensitize AML cells to PARPi's, KASUMI-1, MOLM14 and MV411 cells were first treated with increased doses of DAC (5 nM-20 nM) for three days with daily replacement of drugs and media as described previously (Tsai et al., 2012). […] Ten days later, clonogenic efficiency was measured by counting colonies with more than 40 cells and results were expressed as fold changes compared to controls (CRTL) (FIG. 2)."}, "[2]": {"test_system": "mononuclear cells (MNC) from AML patients", "assay": "Colony forming assay in primary cells from AML patients", "assay_type": "cell-based, Human"}, "[3]": {"test_system": "cancer cell lines derived from leukemia, breast, ovarian, and lung", "assay": "Methylcellulose colony assay in multiple cancer cell lines", "assay_type": "cell-based", "details": "DAC/5-AZA (10 nM and 5 nM) for 3 days alone", "procedure": "Multiple cancer cell lines derived from leukemia, breast, ovarian, and lung were treated with low dose DAC/5-AZA (10 nM and 5 nM) for 3 days, followed by removal of the drug for 4 days to 7 days, and subsequent plating of cells in methylcellulose to follow self-renewal capability in the presence or absence of the PARP inhibitor ABT888 (500 nM)."}, "γH2AX foci": {"test_system": "γH2AX foci", "assay": "γH2AX foci immunofluorescence in MV411", "assay_type": "cell-based, Human", "details": "MV411, DAC 20 nM alone", "procedure": "Immunofluorescence: AML cells (0.2×10^6 cells) were cytospun onto glass slides for 5 min at 200 rpm in PBS 1× on a Shandon Cytospin 4. Cells were then fixed for 30 min in 4% paraformaldehyde, washed 3 times in DPBS (+CaCl2 and MgCl2, DPBS++), permeabilized for 10 min in permeabilization solution (50 mM NaCl, 3 mM MgCl2, 10 mM HEPES, 200 mM Sucrose and 0.5% Triton X-100 in PBS 1×), washed 3 times in DPBS (+CaCl2, +MgCl2) supplemented with BSA 1% (DPBS-BSA) and then blocked overnight in DPBS++ supplemented with 10% serum. After incubation with mouse monoclonal anti-γH2A.x (1:100, Upstate), rabbit polyclonal anti-RAD51 (1:100, Santa Cruz Biotechnologies, Dallas, Tex.), rabbit Poly-ADP-ribose (PAR, 1:200, Axxora, Farmingdale, N.Y.), or isotypes controls for an hour at 37° C. in DPBS-BSA, cells were washed and then incubated with Dylight 594-anti-mouse and Dylight 488-anti rabbit (1:200, KPL, Gaithersburg, Md.) for an hour at 37° C. prior to counterstaining with 4′,6 diamidino-2-phenylindole, dihydrochloride (DAPI, 0.3 μg/mL, Promega, Madison, Wis.) in mounting media (Vectashield, Vector Laboratories, Burlingame, Calif.). Slides were examined using a Nikon fluorescent microscope Eclipse 80i (100×/1.4 oil, Melville, N.Y.). Images of at least 50 cells/slide were captured using a CCD (charge-coupled device) camera and the imaging software NIS Elements (BR 3.00, Nikon)."}, "DNMT1": {"molecular_target": "T1, DNMT1 (Homo sapiens, UniProt P26358)", "T1 construct": "endogenous in cells", "assay": "Immunoblotting of DNMT1 in AML cell lines", "assay_type": "cell-based", "details": "DAC treatment alone"}, "caspase 3": {"test_system": "caspase 3", "assay": "Immunoblotting of caspase 3 cleavage in AML cell lines", "assay_type": "cell-based, Human", "details": "DAC treatment alone"}, "PARP": {"test_system": "PARP", "assay": "Immunoblotting of PARP protein expression in AML cell lines", "assay_type": "cell-based, Human", "details": "DAC treatment alone"}},
  "note": "At least one structure is not confirmed: it was looked up by name or label, or the drawing left a doubt.",
  "data": [
    {"smiles": "Nc1ncn([C@H]2C[C@H](O)[C@@H](CO)O2)c(=O)n1", "note": "[DAC, Decitabine]", "values": [
      {"measurement": "colony number vs CRTL", "setting": "[1]", "result": "significant decrease in colony number"},
      {"measurement": "colonies", "setting": "[2]; DAC 10 nM-20 nM alone, all 6 samples", "result": "decreased colonies"},
      {"measurement": "clonogenicity", "setting": "[2]; bone marrow mononuclear cells of patient #29, DAC alone", "result": "decreased"},
      {"measurement": "colony numbers", "setting": "[3]", "result": "significant decrease in colony numbers"},
      {"measurement": "γH2AX foci", "setting": "γH2AX foci", "result": "no increase in foci"},
      {"measurement": "DNMT1 expression levels vs control", "setting": "DNMT1", "result": "decrease DNMT1 expression levels"},
      {"measurement": "caspase 3 cleavage vs control", "setting": "caspase 3", "result": "increase caspase 3 cleavage"},
      {"measurement": "PARP protein expression", "setting": "PARP", "result": "decrease in PARP protein expression"}
    ]}
  ]
}
